Results taken from US8309554B2 (priority 2008, dated 2012).
Read-outs that look alike come from different tables or passages of the source. At least one structure is not confirmed: it was looked up by name or label, or the drawing left a doubt.

Tests used:
[1] = test system: HT 1080 sarcoma xenograft; conditions: mouse, in vivo
H460 = type: cell-based
HT29 = type: cell-based

| SMILES | antitumor efficacy [1] | H460 HCR: Air/N2 (H460) | IC50 (H460; read-out: 2 hr Air H460 IC50) | IC50 (H460; read-out: 2 hr N2 H460 IC50) | HT29 HCR: Air/N2 (HT29) | IC50 (HT29; read-out: 2 hr Air HT29 IC50) | IC50 (HT29; read-out: 2 hr N2 HT29 IC50) |
| --- | --- | --- | --- | --- | --- | --- | --- |
| O=[N+]([O-])c1sccc1C(Cc1ccc(OCCO)nc1)S(=O)(=O)Oc1ccc(N(CCCl)CCCl)cc1 (stereo not shown) [TH-1315, 3-(4-(N,N-bis-(2-Chloroethyl)amino)phenoxysulfonyl-(2-(2-hydroxyethoxy)pyridin-5-yl-methyl))methyl-2-nitrothiophene] | efficacious both as a single agent and in combination with doxorubicin |  |  |  |  |  |  |
| Cc1nc(OCCO)cc(Cl)c1CC(c1ccsc1[N+](=O)[O-])S(=O)(=O)Oc1ccc(N(CCCl)CCCl)cc1 (stereo not shown) [TH-1475, 3-(4-(N,N-bis-(2-Chloroethyl)amino)phenoxysulfonyl-(2-(2-hydroxyethoxy)-4-chloro-6-methylpyridin-5-yl-methyl))methyl-2-nitrothiophene] |  | 167 | 100 µM | 0.6 µM | >17 | > 300 µM | 18 µM |
